# Results: PubChem BioAssay AID1671190 (National Center for Advancing Translational Sciences (NCATS), 2021)
# Sequences of proteins named here, by UniProt entry; tags and fusion partners are left off.
# UniProt P18054, whole entry, looked up: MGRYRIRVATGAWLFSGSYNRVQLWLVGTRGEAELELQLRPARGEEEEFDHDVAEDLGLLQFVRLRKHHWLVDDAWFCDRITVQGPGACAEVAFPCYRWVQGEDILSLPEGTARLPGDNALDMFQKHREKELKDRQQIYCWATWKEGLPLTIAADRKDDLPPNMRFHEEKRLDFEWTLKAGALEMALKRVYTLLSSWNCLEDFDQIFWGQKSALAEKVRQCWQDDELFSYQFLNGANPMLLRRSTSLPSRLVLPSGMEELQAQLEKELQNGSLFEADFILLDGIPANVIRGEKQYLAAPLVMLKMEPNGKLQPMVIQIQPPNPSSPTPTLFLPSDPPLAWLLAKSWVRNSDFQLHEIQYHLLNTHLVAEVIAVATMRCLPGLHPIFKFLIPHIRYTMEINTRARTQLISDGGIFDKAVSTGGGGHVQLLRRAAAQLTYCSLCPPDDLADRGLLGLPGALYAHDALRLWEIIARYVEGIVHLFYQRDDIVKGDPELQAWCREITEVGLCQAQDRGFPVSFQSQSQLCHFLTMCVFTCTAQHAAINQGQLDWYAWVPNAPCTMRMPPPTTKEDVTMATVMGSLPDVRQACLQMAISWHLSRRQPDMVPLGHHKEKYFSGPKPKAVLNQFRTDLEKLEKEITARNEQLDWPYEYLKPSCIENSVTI
# The campaign covered roughly 580,000 compounds. About 6,100 (1.1%) were called active. The shares of active, inactive and inconclusive entries below differ from those in the screen. Calls come from the whole dose curve; as a rule, active = well fitted inhibition curve with a large enough effect; inconclusive = small, poorly fitted or top-dose-only effect, or another doubt; inactive = no such curve, though single readings can be large or run the other way. A potency beside an inconclusive call is a rough fit, not a confirmed value.
# Target: Polyunsaturated fatty acid lipoxygenase ALOX12 (Homo sapiens) (UniProt P18054)
# Assay: Primary qHTS assay for inhibitors of human arachidonate 12S-lipoxygenase (ALOX12): Round 2
# Conditions: purified 12hLO, xylenol orange hydroperoxide absorbance; activity change, negative = inhibition: at 108 µM (top of the series) unless noted
# In short: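 Purified human 12hLO (150 nM final) in 25 mM Hepes, 0.01% Triton X-100, pH 7.0 was preincubated 15 min at room temperature with compound. Then 40 uM arachidonic acid was added, 30 min. Hydroperoxide was read by Fe-XO absorbance ratio 573/405 nm.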
# % is set by controls: 0 for no effect and ±100 for the full control effect; potency is the fitted concentration of half-maximal effect.
Compound,Potency,"activity change, negative = inhibition"
COCCNC(=O)C[C@@H]1C[C@H]2O[C@H](CNC(=O)Nc3cccnc3)[C@@H](O)[C@H]2O1,inactive,–
Cc1ccc(NC(=O)CN2C(=O)NC(c3ccc(Cl)cc3)C3=C2COC3=O)c(Cl)c1 (centres undefined),"inconclusive: 17.8 µM [inhibitor, full curve]",–
CCN(C(=S)Nc1cc(S(=O)(=O)N(C)C)ccc1C)c1cccc2ccccc12,"inconclusive: 1.12 µM [inhibitor, full curve, poor fit]",–
COc1ccc(Nc2ccc(S(=O)(=O)N3CCCCCC3)cc2[N+](=O)[O-])cc1,inactive,–
CCC(CO)NCC#Cc1ccccc1 (centres undefined),inactive,–
CCOC(=O)c1cccc(NS(=O)(=O)c2ccc(-c3cnc(C4CC4)o3)cc2)c1,"inconclusive: 56.2 µM [inhibitor, partial curve, poor fit]",–
C=CCNC(=O)CN1CCN(c2ccnc3c(F)ccc(F)c23)CC1,inactive,–
O=C1/C(=C/c2ccncc2)SC(=S)N1C1CCS(=O)(=O)C1 (centres undefined),inactive,–
NC(=O)c1nc(Nc2ccccc2)sc1NC(=O)c1ccccc1Br,"inconclusive: 31.6 µM [inhibitor, partial curve]",–
Cc1noc(C)c1C(=O)N1CCN(c2ccccc2O)CC1,"inconclusive: 44.7 µM [inhibitor, partial curve, poor fit]",–
COC(=O)c1cccc(N2C(=O)C[C@](Sc3ccc(OC)cc3)(C(=O)N(C)C)[C@H]2c2ccc(OC)cc2)c1,"inconclusive: 39.8 µM [inhibitor, partial curve]",–
Fc1ccc(CNc2ccc3nnc(C(F)(F)F)n3n2)cc1,inactive,–
Cc1cc2n(n1)C(c1ccccc1Cl)Nc1ccccc1-2 (centres undefined),"inconclusive: 100 µM [inhibitor, single point]",–
COC(=O)c1cccc(NC(=O)/C=C/c2ccc([N+](=O)[O-])cc2)c1,inactive,–
COc1cc(OC)cc(-c2cc3nc(C)c(CCC(=O)NCc4ccc(Cl)cc4)c(C)n3n2)c1,inactive,–
O=C(NC[C@H]1COCc2nc3ccccc3n21)c1ccc(Cl)cc1,inactive,–
Nc1cc(=O)[nH]c(SCC(=O)Nc2cc(Cl)cc(Cl)c2)n1,"inconclusive: 35.5 µM [inhibitor, partial curve, poor fit]",–
CC1(C(=O)NS(=O)(=O)c2cccc(OC(F)F)c2)CCN1C(=O)C1CC1 (centres undefined),"inconclusive: 126 µM [inhibitor, single point]",–
CCN1/C(=C/C=C/C=C/C=C/c2sc3ccccc3[n+]2CC)Sc2ccccc21,active: 39.8 µM,–
COC(=O)c1sc(S(=O)(=O)Nc2ccc(Br)cc2F)c(C(=O)OC)c1C,"inconclusive: 50.1 µM [inhibitor, partial curve, poor fit]",–
c1cc(-c2nc(CC3CCCNC3)no2)ccn1 (centres undefined),"inconclusive: 15.8 µM [inhibitor, partial curve]",–
COc1ccc(/C(C)=N/N=C2/NC(=O)CC(C(=O)O)S2)cc1 (centres undefined),inactive,–
Cc1cccc(N2CCN(C(=O)Cn3ncc4c5ccccc5n(C)c4c3=O)CC2)c1C,inactive,–
O=c1oc2cc(Br)ccc2n1CSC1=NCCS1,inactive,–
C#CCNC(=O)[C@H]1O[C@H](CCN2CCN(Cc3ccccc3)CC2)CC[C@@H]1O,inactive,–

Compound,Potency,"activity change, negative = inhibition"
C=CCSc1nccc(-c2cc(Cl)sc2Cl)n1,inactive,–
Cc1nnc(NC(=O)c2ccc(S(=O)(=O)N3CC(C)OC(C)C3)cc2)o1 (centres undefined),inactive,–
COc1ccc(Cc2c(-c3ccc(F)cc3)nc3ccc(Cl)cn23)c(C)c1,active: 28.2 µM,–
CCS(=O)(=O)N1CCN(c2ccc(N3CCCCC3)nn2)CC1,"inconclusive: 39.8 µM [inhibitor, partial curve, poor fit]",–
Cn1nc(NC(=O)CC(C)(C)CC(=O)O)c2ccccc21,"inconclusive: 158 µM [inhibitor, single point]",–
CN(C)C(=O)c1ccc(NC(=O)CC#N)cc1,inactive,–
O=C(N/N=C/c1cccnc1)c1[nH]ncc1Br,inactive,–
Cc1ccc(C)n1-c1nnc(N2CCCC(C(=O)NCc3cccc(F)c3)C2)s1 (centres undefined),inactive,–
Cc1ccc2[nH]c3c(=O)n(CC(=O)N4CCCCC4)ncc3c2c1,"inconclusive: 141 µM [inhibitor, partial curve, poor fit]",–
Cc1ccc2c(cnn2C(=O)CCC(=O)NCc2cccc(Br)c2)c1,inactive,–
Cc1ccc(NC(=O)Cn2nc(C(=O)O)c3ccccc3c2=O)c(Br)c1,"inconclusive: 56.2 µM [inhibitor, partial curve, poor fit]",–
S=C(NCCc1ccccn1)Nc1ccc(Cl)c(Cl)c1,inactive,–
O=C(/C=C/c1ccc(Br)cc1)NC1CCCC1,inactive,–
Cc1cc(C2CC(=O)Nc3ccccc3S2)c(C)s1 (centres undefined),"inconclusive: 141 µM [inhibitor, single point]",–
Cc1nc(C(=O)O)ccc1C#N,"inconclusive: 126 µM [inhibitor, single point]",–
CCOc1ccccc1NC(=O)NNS(=O)(=O)c1cc(OC)ccc1OC,"inconclusive: 141 µM [inhibitor, partial curve, poor fit]",–
O=C(CNC(=O)c1ccc2c(c1)OCCO2)N/N=C/c1ccc(Cl)cc1,inactive,–
O=C(Cc1cccc(C(F)(F)F)c1)Nc1ccccc1,inactive,–
O=C(Nc1nc(-c2ccccc2Cl)cs1)C1CCN(C(=O)c2ccoc2)CC1,"inconclusive: 39.8 µM [inhibitor, partial curve, poor fit]",–
COc1ccccc1CCNC(=O)C(=O)NCCC1CCCCN1S(=O)(=O)c1cccs1 (centres undefined),"inconclusive: 79.4 µM [inhibitor, single point]",–
O=C(Nc1ccc(S(=O)(=O)N2CCCCC2)cc1)c1ccc(=O)[nH]c1,"inconclusive: 89.1 µM [inhibitor, single point]",–
Fc1ccc(N/N=C2/CC(c3ccccc3)Oc3ccccc32)c(F)c1 (centres undefined),"inconclusive: 22.4 µM [inhibitor, partial curve, poor fit]",–
COC(=O)c1ccc(Cl)c(NC(=O)CN(c2ccccc2)S(=O)(=O)N(C)C)c1,"inconclusive: 44.7 µM [inhibitor, partial curve, poor fit]",–
COc1cc(NC(=O)Nc2cccc(-c3noc(C)n3)c2)cc(OC)c1OC,inactive,–
O=c1cc(C(F)(F)F)[nH]c(=S)n1-c1ccccc1,"inconclusive: 3.98 µM [inhibitor, full curve, poor fit]",–

Compound,Potency,"activity change, negative = inhibition"
O=C(NCc1ccco1)C12CC3CC(C1)CC(C(=O)NCc1ccco1)(C3)C2,inactive,–
Cc1ccccc1-n1c(SCC(=O)NCC2CCCO2)nnc1-c1ccncc1 (centres undefined),inactive,–
Cc1ccc(-n2c(SCC(=O)Nc3ccc(Cl)cc3)nc3c(=O)[nH]cnc32)cc1,"inconclusive: 44.7 µM [inhibitor, partial curve, poor fit]",–
CCCn1nnnc1NC(=O)c1cc(Cl)ccc1Cl,inactive,–
COc1cc(C(=O)OCC(=O)Nc2c(C)n(C)n(-c3ccccc3)c2=O)c([N+](=O)[O-])cc1OC,"inconclusive: 126 µM [inhibitor, single point]",–
CC(=O)c1ccc(NC(=S)NCCc2ccccn2)cc1,inactive,–
CC(NC(=S)NC(=O)c1cccs1)c1ccccc1 (centres undefined),active: 25.1 µM,–
CC1(C)OC2CC3C4CC(F)C5=CC(=O)C=CC5(C)C4(F)C(O)CC3(C)C2(C(=O)CO)O1 (centres undefined),inactive,–
COc1cc(/C=N/NS(=O)(=O)c2ccc(C(C)(C)C)cc2)cc([N+](=O)[O-])c1O,"inconclusive: 39.8 µM [inhibitor, partial curve, poor fit]",–
Cc1ccccc1CCNC(=O)c1ccc2c(c1)CCCC2,"inconclusive: 39.8 µM [inhibitor, partial curve, poor fit]",–
Cc1cc(N2C(=O)CC(N3CCN(c4ccc(C(=O)c5cccs5)cc4)CC3)C2=O)no1 (centres undefined),active: 31.6 µM,–
Cc1c(-c2ccccc2F)[nH]c2ccc(CNC(=O)CCN3CCCO3)cc12,"inconclusive: 89.1 µM [inhibitor, single point]",–
O=c1[nH]c2ccccc2nc1/C=C(\O)c1cccs1,inactive,–
C=CCn1cccc(C(=O)Nc2ccc(OC)cc2)c1=O,"inconclusive: 79.4 µM [inhibitor, single point]",–
Cc1ccc(NCc2nnc(SCC(=O)N3c4ccccc4Sc4ccccc43)o2)c(C)c1,"inconclusive: 0.355 µM [inhibitor, full curve, poor fit]",–
CN1CCN(c2ccccc2NC(=O)c2ccc(-c3ccccc3[N+](=O)[O-])o2)CC1,inactive,–
CC[C@]12c3[nH]c4ccccc4c3CCN1C(=O)C(CC(=O)NC(C)(C)C)C[C@@H]2C(=O)N1CCN(C(=O)C2CC2)CC1 (some centres undefined),inactive,–
Cc1n[nH]c(C)c1CCCCOc1ccccc1[N+](=O)[O-],"inconclusive: 39.8 µM [inhibitor, partial curve, poor fit]",–
CC(C)(CNC(=O)C(Cl)(Cl)Cl)CNC(=O)C(Cl)(Cl)Cl,"inconclusive: 50.1 µM [inhibitor, partial curve, poor fit]",–
COc1cccc(COC(=O)c2nn(Cc3ccccc3)c(=O)c3ccccc23)c1,–,inconclusive: -31% [inhibitor]
Cc1sc2nc(SCC(=O)N(C)C)[nH]c(=O)c2c1C,"inconclusive: 100 µM [inhibitor, single point]",–
Oc1ccccc1-c1ccnc2cc(-c3ccccc3)nn12,–,inconclusive: -30.3% [inhibitor]
CSCc1ccc(C(=O)Nc2ccc(F)cc2Cl)o1,"inconclusive: 89.1 µM [inhibitor, partial curve, poor fit]",–
Cc1ccc(N2CCC(NC(=O)c3cccc(Br)c3)C2=O)cc1 (centres undefined),"inconclusive: 39.8 µM [inhibitor, partial curve, poor fit]",–

# Copied from the list:
# Potency, O=c1[nH]c2ccccc2nc1/C=C(\O)c1cccs1 is entered as inactive
# Potency, Cc1ccccc1-n1c(SCC(=O)NCC2CCCO2)nnc1-c1ccncc1 (centres undefined) is entered as inactive
# activity change, negative = inhibition, COc1cccc(COC(=O)c2nn(Cc3ccccc3)c(=O)c3ccccc23)c1 is entered as inconclusive: -31% [inhibitor]
# Potency, CC(C)(CNC(=O)C(Cl)(Cl)Cl)CNC(=O)C(Cl)(Cl)Cl is entered as inconclusive: 50.1 µM [inhibitor, partial curve, poor fit]
# Potency, O=C(NCc1ccco1)C12CC3CC(C1)CC(C(=O)NCc1ccco1)(C3)C2 is entered as inactive
